Assay: 11B- and 19F-NMR binding experiment with arginine methyl ester
Conditions: equimolar mixture with Arg-OMe in DMSO-d6

SMILES	Formation of coordinate covalent N–B bond with Arg-OMe (11B- and 19F-NMR chemical shifts)
CC(C)C(=O)Nc1ccc(B(O)O)c(C(F)(F)F)c1 [1c, 4-Isobutyramido-2-(trifluoromethyl)phenylboronic acid]	no significant changes in chemical shifts
O=C(Nc1ccc(B(O)O)c(F)c1)c1cnc(Cl)cn1 [9a, 4-(5-Chloropyrazine-2-carboxamido)-2-fluorophenylboronic acid]	no significant changes in chemical shifts
